{
  "source": "patent US7976863B2",
  "about": "“Biomedical devices with antimicrobial coatings” (priority 2002, dated 2011)",
  "type_in_all_cases": "cell-based",
  "key": {"S. aureus 31 [1]": {"test_system": "S. aureus 31", "experiment": "MIC in solution (tube/microtitre turbidity)", "conditions": "MIC, peptide in solution, 18 hours at 35° C.", "description": "(§1) To assess the effect of cationic proteins/peptides in solution against bacterial cells, Psudomonas aeruginosa 6294 and Staphylacoccus aureus 31 cells were grown as for 18 hours in Tryptone Soya Broth (TSB) at 35° C. The cells were then harvested by centrifugation and washed twice in phosphate buffered saline (PBS; NaCl 8 g/l; KCl 0.2 g/l; Na2HPO4 1.15 g/l; KH2PO4 0.2 g/l). The cells were then re-suspended to OD 0.1 at 660 nm in PBS. The cationic peptide was serially diluted from 1 mg/ml and dilutions were added to wells in a 96 well microtitre plate or into 5 ml disposable test-tubes. Controls were bacteria without peptides. Bacteria were incubated for 18 hours at 35° C. and turbidity was measured at 660 nm. A lack of turbidity in the test-tube corresponding to the peptide dilution was considered to be the minimum inhibitory concentration (“MIC”)."}, "S. aureus CK5 [2]": {"test_system": "S. aureus CK5", "experiment": "MIC in solution (tube/microtitre turbidity)", "conditions": "MIC, peptide in solution, 18 hours at 35° C."}, "P. aeruginosa 6294 [3]": {"test_system": "P. aeruginosa 6294", "conditions": "MIC, peptide in solution, 18 hours at 35° C.", "description": "as §1"}, "P. aeruginosa 15442 [4]": {"test_system": "P. aeruginosa 15442", "experiment": "MIC in solution (tube/microtitre turbidity)", "conditions": "MIC, peptide in solution, 18 hours at 35° C."}, "P. aeruginosa 6294 [5]": {"test_system": "P. aeruginosa 6294", "experiment": "Viable counts of bacteria adhered to peptide-adsorbed Etafilcon A lenses", "conditions": "for % reduction at 10 min / % reduction at 5 hrs: vs uncoated control lens", "description": "(§2) For conducting viable counts, Etafilcon A lenses were removed from the manufacturers vials, washed three times in 1 ml PBS, dried and then coated by pipetting 500 μg L-Melimine onto the contact lenses (melimine was dissolved in […] and air dried onto contact lenses) overnight at ambient temperature in a fume hood. Lenses were rehydrated in PBS for 10 minutes and 0.5 ml of 1×10^8 bacterial cells/ml, including gram-positive S. aureus and gram-negative P. aeruginosa were added to the lenses. After incubation at ambient temperature for either 10 min or 5 hours, the lenses were washed three times in PBS to remove non-adherent or loosely adherent bacteria. Lenses were then homogenized using tissue homogenizer and 1 ml PBS until lens disintegration (about 1-2 minutes). Serial dilutions were then made according to the technique of Miles and Misra and aliquots (20 μL) plated out on nutrient agar. After incubation overnight at 37° C., viable bacteria were determined and results expressed as colony forming units/mm^2 after calculation of the surface area of the lens (approximately 310 mm^2). The effects are calculated based upon comparison to adhesion control lens that was not coated with cationic protein/peptide before bacterial adhesion testing.\n(§3) Etafilcon lenses, commercially available from Johnson & Johnson as ACUVUE® Brand contact lenses) were soaked as in Example 2, above, except that the L-melimine concentration was varied: 125 μg, 250 μg or 500 μg/lens. After absorption of L-Melimine onto the hydrogel polymer, the lenses were rehydrated with PBS, and exposed to S. aureus or P. saeruginosa for either 10 minutes or five hours, as described in Example 2. After exposure, the polymer was evaluated for numbers of microorganisms the standard Miles and Misra plate count assay.\n(§4) Stock solutions (50 mg/ml) were prepared containing the L-Protattin in distilled water. 500 μg of the stock solution was adsorbed to a contact lens made from Etafilcon A as for L-melamine in Example 2 for 18 hours at ambient temperature in a fume hood. The subsequent experimental details are as described in Example 2, above and viable bacteria was measured.\n(§5) Contact lenses were coated and dried (as in Example 2) and D-Melimine applied at a concentration of either 250 μg per lens or 500 μg per lens. D-melimine was made using D-amino acids as for L-melimine using standard peptide synthesis techniques (e.g. Fmoc). Assays for measuring inhibition of bacterial adhesion were performed as in Example 2."}, "S. aureus 31 [6]": {"test_system": "S. aureus 31", "experiment": "Viable counts of bacteria adhered to peptide-adsorbed Etafilcon A lenses", "conditions": "vs uncoated control lens", "description": "as §2, §3, §4, §5"}, "P. aeruginosa 15442 [7]": {"test_system": "P. aeruginosa 15442", "experiment": "Viable counts of bacteria adhered to peptide-adsorbed Etafilcon A lenses", "conditions": "500 μg/lens adsorbed on Etafilcon A lens, vs uncoated control lens", "description": "as §2, §4"}, "S. aureus CK5 [8]": {"test_system": "S. aureus CK5", "experiment": "Viable counts of bacteria adhered to peptide-adsorbed Etafilcon A lenses", "conditions": "500 μg/lens adsorbed on Etafilcon A lens, vs uncoated control lens", "description": "as §2, §4"}, "Streptococcus pneumoniae": {"test_system": "Streptococcus pneumoniae", "experiment": "Viable counts of bacteria adhered to peptide-adsorbed Etafilcon A lenses", "conditions": "lenses prepared as in Example 2 (500 μg/lens), vs untreated control lens"}, "Serratia marcescens": {"test_system": "Serratia marcescens", "experiment": "Viable counts of bacteria adhered to peptide-adsorbed Etafilcon A lenses", "conditions": "lenses prepared as in Example 2 (500 μg/lens), vs untreated control lens"}, "P. aeruginosa 6294 [9]": {"test_system": "P. aeruginosa 6294", "experiment": "Heat stability study: inhibition of growth in solution after autoclaving", "conditions": "121° C. for 15 minutes; P. aeruginosa 6294 and S. aureus 31", "description": "A heat stability study was conducted to evaluate whether post-exposure of the L-Melimine to autoclaving would alter the ability of the peptide to prevent bacterial growth.\nBacteria (P. aeruginosa 6294 and S. aureus 31) were grown for 18 hours at 35° C. in TSB, then washed twice in PBS. The bacteria were resuspended in PBS to an optical density of 0.1 at 660 nm. L-Melimine was dissolved in PBS to a concentration of 1000 μg/ml and autoclaved at 121° C. for 15 minutes. Equal volumes of bacterial suspension and L-Melimine were then added together and incubated at 35° C. for periods of up to 72 hours. Controls were non-autoclaved L-Melimine. After 24, 48 and 72 hours, aliquots of the bacteria/L-Melimine solutions were removed and the number of viable bacteria were counted using the standard Miles and Misra plate count assay."}, "P. aeruginosa": {"test_system": "P. aeruginosa", "conditions": "30 days passage at sub-inhibitory level", "description": "as §1\n(§6) L-Melimine was evaluated to determine its potential to induce resistance in P. aeruginosa and S. aureus. Prior to L-Melimine exposure, MICs of both strains were determined as in Example 1. […] Bacteria were grown overnight in TSB. Bacteria were inoculated 1:100 into fresh TSB containing sub-inhibitory levels of L-Melimine and incubated overnight. […] After passaging, a MIC for the bacteria from the last passage was determined. […]"}, "S. aureus": {"test_system": "S. aureus", "conditions": "30 days passage at sub-inhibitory level", "description": "as §1, §6"}, "P. aeruginosa 6294 [10]": {"test_system": "P. aeruginosa 6294", "experiment": "Zone of inhibition on agar in the presence of tears", "conditions": "P. aeruginosa and S. aureus"}, "[11]": {"conditions": "125 μg/lens adsorbed on Etafilcon lens"}, "[12]": {"conditions": "250 μg/lens adsorbed on Etafilcon lens, listed as L-Melimine"}, "[13]": {"conditions": "250 μg/lens adsorbed on Etafilcon lens, listed as L-melimine"}, "[14]": {"conditions": "500 μg/lens adsorbed on Etafilcon lens, listed as L-Melimine"}, "[15]": {"conditions": "500 μg/lens adsorbed on Etafilcon lens, listed as L-melimine"}},
  "note": "“And” between values parts separate entries of the source, which are not always exact repeats. Equal entries are not always repeated. At least one peptide structure holds a part that was inferred or is arguable (an end, a ring closure or a residue). Ends that are not written are not given here.",
  "data": [
    {"sequence": "TLISWIKNKRKQRPRVSRRRRRRGGRRRR [Melimine, TLISWIKNKRKQRPRVSRRRRRRGGRRRR]", "values": [
      {"measurement": "minimum concentration required to inhibit bacterial growth, S.a. 31", "setting": "S. aureus 31 [1]", "result": 125, "unit": "µg/mL"},
      {"measurement": "minimum concentration required to inhibit bacterial growth, S.a. CK5", "setting": "S. aureus CK5 [2]", "result": 250, "unit": "µg/mL"},
      {"measurement": "minimum concentration required to inhibit bacterial growth, P.a 6284", "setting": "P. aeruginosa 6294 [3]", "result": "R (R = resistant, highest concentration of peptide = 1000 ug/Ml)"},
      {"measurement": "minimum concentration required to inhibit bacterial growth, P.a 15442", "setting": "P. aeruginosa 15442 [4]", "result": "R (R = resistant, highest concentration of peptide = 1000 ug/Ml)"},
      {"measurement": "% reduction at 10 min", "setting": "P. aeruginosa 6294 [5]; [11]", "result": "−19 ± 41", "unit": "%"},
      {"measurement": "% reduction at 5 hrs", "setting": "P. aeruginosa 6294 [5]; [11]", "result": "60 ± 40", "unit": "%"},
      {"measurement": "% reduction at 10 min", "setting": "P. aeruginosa 6294 [5]; [12]", "result": "27 ± 15", "unit": "%"},
      {"measurement": "% reduction at 5 hrs", "setting": "P. aeruginosa 6294 [5]; [12]", "result": "77 ± 11", "unit": "%"},
      {"measurement": "% reduction at 10 min", "setting": "P. aeruginosa 6294 [5]; [13]", "result": "27 + 15%"},
      {"measurement": "% reduction at 5 hrs", "setting": "P. aeruginosa 6294 [5]; [13]", "result": "77 + 11 (4) %"},
      {"measurement": "% reduction at 10 min", "setting": "P. aeruginosa 6294 [5]; [14]", "result": "44 ± 30 (4) % and 44 ± 30%"},
      {"measurement": "% reduction at 5 hrs", "setting": "P. aeruginosa 6294 [5]; [14]", "result": "95 ± 2 (3) % and 93 ± 2%"},
      {"measurement": "% reduction at 10 min", "setting": "P. aeruginosa 6294 [5]; [15]", "result": "44 + 30%"},
      {"measurement": "% reduction at 5 hrs", "setting": "P. aeruginosa 6294 [5]; [15]", "result": "93 + 2 (3) %"},
      {"measurement": "reduction of number of microorganisms adhered to a hydrogel polymer", "setting": "P. aeruginosa 6294 [5]; 500 μg/lens, text summary for all bacteria strains tested (Table 2)", "result": "at least 80%"},
      {"measurement": "% reduction at 10 min", "setting": "S. aureus 31 [6]; [11]", "result": "−1361 ± 1745", "unit": "%"},
      {"measurement": "% reduction at 5 hrs", "setting": "S. aureus 31 [6]; [11]", "result": "−81 ± 98", "unit": "%"},
      {"measurement": "% reduction at 10 min", "setting": "S. aureus 31 [6]; [12]", "result": "−127 ± 254", "unit": "%"},
      {"measurement": "% reduction at 5 hrs", "setting": "S. aureus 31 [6]; [12]", "result": "−163 ± 266", "unit": "%"},
      {"measurement": "% reduction at 10 min", "setting": "S. aureus 31 [6]; [13]", "result": "127 + 254%"},
      {"measurement": "% reduction at 5 hrs", "setting": "S. aureus 31 [6]; [13]", "result": "163 + 266%"},
      {"measurement": "% reduction at 10 min", "setting": "S. aureus 31 [6]; [14]", "result": "62 ± 32 (5) % and 62 ± 32%"},
      {"measurement": "% reduction at 5 hrs", "setting": "S. aureus 31 [6]; [14]", "result": "77 ± 21 (3) % and 77 ± 21%"},
      {"measurement": "% reduction at 10 min", "setting": "S. aureus 31 [6]; [15]", "result": "62 + 32%"},
      {"measurement": "% reduction at 5 hrs", "setting": "S. aureus 31 [6]; [15]", "result": "77 + 21 (3) %"},
      {"measurement": "% reduction at 10 min", "setting": "P. aeruginosa 15442 [7]", "result": "31 ± 38 (5) %"},
      {"measurement": "% reduction at 5 hrs", "setting": "P. aeruginosa 15442 [7]", "result": "78 ± 16 (3) %"},
      {"measurement": "% reduction at 10 min", "setting": "S. aureus CK5 [8]", "result": "86 ± 18 (4) %"},
      {"measurement": "% reduction at 5 hrs", "setting": "S. aureus CK5 [8]", "result": "86 ± 7 (4) %"},
      {"measurement": "% reduction at 10 min", "setting": "Streptococcus pneumoniae", "result": "68 ± 7 (3) %"},
      {"measurement": "% reduction at 10 min", "setting": "Serratia marcescens", "result": "43 ± 36 (4) %"},
      {"measurement": "heat stability: effect of autoclave treatment on activity", "setting": "P. aeruginosa 6294 [9]", "result": "did not result in any reduction in activity"},
      {"measurement": "potential to induce resistance", "setting": "P. aeruginosa", "result": "no indication for potential resistance"},
      {"measurement": "potential to induce resistance", "setting": "S. aureus", "result": "no indication for potential resistance"},
      {"measurement": "activity in the presence of tears (in words)", "setting": "P. aeruginosa 6294 [10]", "result": "no significant increase or decrease in the activity"}
    ]}
  ]
}
